Test system: HEp-2 cells
Settings: read-out: HEp-2 CC50; uninfected HEp-2 cells, viability reduced by 50%, MTS

Compound: Cc1ccc(CCCO)c(NCc2ccc3nc(NCCCN4CCOCC4)n(Cc4nc(C)ccc4O)c3c2)c1 [TMC353121, reference compound]
- CC50: > 10 µM

Source: PMC9643853, “Synthesis and evaluation of 3-alkynyl-5-aryl-7-aza-indoles as broad-spectrum antiviral agents” (Frontiers in Chemistry, 2022)
